“Also recorded” adds a separate entry of the source. At least one compound was matched to its structure with a doubt left.
Experiments:
E. coli persisters = experiment: E. coli persister assay (survival by c.f.u. per ml); assay type: cell-based, Escherichia coli (K12 EMG2); details: for killing of E. coli persisters by antibiotic without metabolite: antibiotic alone, no carbon source
Procedure: (§1) For E. coli (K12 EMG2 strain) persister assays, as described herein, samples were grown to stationary phase in Luria-bertani (LB) broth. Cultures were then treated for 4 hours with 5 μg/mL ofloxacin. […] Samples were then washed with 10 mL 1× filtered PBS and re-suspended in M9 minimal media. Metabolites (Glucose, mannitol, fructose, and pyruvate) and aminoglycoside antibiotics (10 μg/mL gentamicin, 50 μg/mL streptomycin, and 30 μg/mL kanamycin) were added, and samples were incubated at 37° C., 300 RPM, and 80% humidity. Resuspension of samples in defined minimal media allowed precise and specific testing of the effect of different metabolites on persister viability, without the possible confounding factors that a more complex media would present. For S. aureus persister (ATCC 25923 strain) experiments, cells were grown at 37° C. and 300 RPM in LB broth to an OD600 of 0.3. Cells were then diluted 1:1000 in 25 mL LB and grown for 16 hours at 37° C. and 300 RPM in 250 mL flasks. Cultures were treated with carbon source and antibiotic. Previous work has shown that, approximately all, stationary phase S. aureus cells are persistent.
At specified time points, 10 μL aliquots of samples were removed, serially diluted, and spot-plated onto LB agar plates to determine colony forming units/mL (CFU/mL). Only dilutions that yielded between 10-100 colonies were counted. Survival was determined by dividing a replicate's CFU/mL at each time point by the initial CFU/mL for the replicate.
Given the dormancy of bacterial persisters and the known energy requirement for aminoglycoside activity^16, we tested whether metabolic stimulation could potentiate the efficacy of aminoglycosides against bacterial persisters. To test this, we screened metabolites for their ability to potentiate aminoglycosides against E. coli persisters. We selected carbon sources to maximize coverage of glycolysis, the pentose-phosphate pathway (PPP) and the Entner-Doudoroff pathway (EDP) (FIGS. 1A, 1B). Bacterial persisters were isolated (as described under “Methods”), re-suspended in minimal media supplemented with individual metabolites and then treated for 2 hours with the aminoglycoside gentamicin.
The following concentrations of carbon sources were used in this study: 10 mM glucose, 10 mM mannitol, 10 mM fructose, 20 mM glycerol, 30 mM glycolate, 10 mM galactarate, 20 mM pyruvate, 10 mM gluconate, 12 mM arabinose and 12 mM ribose. 10 mM acetate was used as a supplement and 30 mM acetate was used as a potentiating metabolite in control experiments. Carbon sources were purchased from Sigma or Fisher. In E. coli persister assays, samples were re-suspended in M9 minimal media salts plus a carbon source. In all experiments using CCCP, samples were pre-treated for 5 min with the proton ionophore before antibiotic addition.
For E. coli persister assays, samples were grown to stationary phase as described above. Cultures were then treated for 4 h with 5 μg ml^−1 ofloxacin in the above-stated growth conditions. […] Samples were then washed with 10 ml of 1× filtered PBS and re-suspended in M9 minimal media. Carbon sources and antibiotics were added and samples were incubated at 37° C. 300 r.p.m. and 80% humidity. Re-suspension of samples in defined minimal media allowed us to test the effects of different carbon sources on persister viability precisely and specifically, without the possible confounding factors that a more complex medium would present. For S. aureus persister experiments, cells were grown at 37° C. and 300 r.p.m. in LB broth to an OD600 of 0.3. Cells were then diluted 1:1,000 in 25 ml LB and grown for 16 h at 37° C. and 300 r.p.m. in 250 ml flasks before treatment with a carbon source and antibiotic. Previous work has shown that almost all stationary-phase S. aureus cells are persistent^25.
At specified time points, 10-μl aliquots of samples were removed, serially diluted and spot-plated onto LB agar plates to determine colony-forming units per ml (c.f.u. ml^−1). […]

S. aureus persisters = experiment: S. aureus persister assay; assay type: cell-based, Staphylococcus aureus (ATCC 25923)
Procedure: as §1, with “Previous work has shown that, approximately all, stationary phase S. aureus cells are persistent.” left out
At specified time points, 10-μl aliquots of samples were removed, serially diluted and spot-plated onto LB agar plates to determine colony-forming units per ml (c.f.u. ml^−1). Only dilutions that yielded 10-100 colonies were counted Survival was determined by dividing the c.f.u. ml^−1 of a sample at each time point by the initial c.f.u. ml^−1 for that sample.

E. coli biofilms = experiment: Biofilm assay (MBEC pegs), E. coli; assay type: cell-based, Escherichia coli (EMG2); details: 4 h treatment

| Structure (SMILES) | reduction of persister viability (killing by gentamicin induced by metabolite) (E. coli persisters; metabolite plus 10 μg/mL gentamicin, 2 h, M9 minimal media) | potentiation of gentamicin against S. aureus persisters by metabolite (S. aureus persisters) | killing of E. coli persisters by antibiotic without metabolite (E. coli persisters) | aminoglycoside activity against E. coli persisters with upper-glycolytic metabolites (E. coli persisters; plus glucose, mannitol or fructose, 30 μg/mL kanamycin, 50 μg/mL streptomycin) | killing of E. coli persisters by antibiotic in the presence of mannitol (E. coli persisters; antibiotic plus 10 mM mannitol) | viability of stationary phase E. coli on increasing ofloxacin (E. coli persisters; ofloxacin raised from 5 to 20 μg/mL, 4 h) | reduction of E. coli biofilm viability (E. coli biofilms) |
| --- | --- | --- | --- | --- | --- | --- | --- |
| CC(=O)C(=O)O [pyruvate] | three orders of magnitude | little potentiation |  |  |  |  |  |
| NC[C@H]1O[C@H](O[C@H]2[C@H](O)[C@@H](O[C@H]3O[C@H](CO)[C@@H](O)[C@H](N)[C@H]3O)[C@H](N)C[C@@H]2N)[C@H](O)[C@@H](O)[C@@H]1O [kanamycin] |  |  | no appreciable killing | greatly enabled |  |  |  |
| CC1COc2c(N3CCN(C)CC3)c(F)cc3c(=O)c(C(=O)O)cn1c23 (centres unmarked) [ofloxacin] |  |  | none of the bactericidal antibiotics used in this study (ofloxacin, ampicillin, and gentamicin) caused killing of cells; also recorded: neither the β-lactam ampicillin nor the quinolone ofloxacin showed appreciable killing |  | neither the β-lactam ampicillin nor the quinolone ofloxacin showed appreciable killing | no further decrease in viability; also recorded: do not decrease survival | almost two orders of magnitude |

Source: US10660911B2, “Proton-motive force stimulation to potentiate aminoglycoside antibiotics against persistent bacteria” (TRUSTEES OF BOSTON UNIVERSITY, priority 2011, dated 2020)
